Experimental data: the supplement of paper PMC10338343
± gives the standard deviation. The list shows a part of the results, in another mix than the full data. Many entries were measured with a wide error.

These sequences were tested on MILI (PIWIL2) piRISC loaded with L1MC piRNA (26 nt) (assay: pre-steady-state target cleavage rate (min^-1); MIWI and MILI are mouse PIWI proteins and EfPiwi is from a freshwater sponge; tags in brackets are library labels; higher = faster piRNA-guided slicing of the target). Details: guide: L1MC piRNA 5'p-UAACUAAAUACUAUGCAAGCUGUAGG; auxiliary factor: 500 nM mouse GTSF1.
Protocol: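 Cleave-'n-Seq: a library of target RNAs (target site embedded in constant flanks, ACAGCATTCCGCGTTAGTGATATCCG... 5' flank; DNA-blocked outside the site) at 0.1 nM was incubated with 1 nM active mouse MILI or MIWI piRISC (synthetic 5'-monophosphorylated piRNA guide) with or without 500 nM mouse GTSF1 at 33 °C for 1 min to 16 h. Uncleaved targets were sequenced and normalised to non-target controls, and the pooled three trials were fitted to a burst-and-steady-state model to give the pre-steady-state cleavage rate (min^-1; k3 is constrained to at most 1e-4). Sequence is the target site only; target names encode pairing extent (gX:gY) and contiguous / 1-mismatch / 2-mismatch / bulge geometry. Fits with R² ≤ 0 are excluded.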

Sequence | pre-steady-state target cleavage rate
UCCUGGAUGUCCUUGCAUAGAUAUUUAGUUA | 0.00754 ± 0.004
UCCUCCUACAGCUUCCAUUGUAUUUAGUUA | 0.0834 ± 0.015
UCCUGGAUGUCGAUGCAUAGUAGUUAGUUA | 0.0193 ± 0.005
UCCUCCUAGAGCUUGGAUAGUAUUUAGUUA | 0.217 ± 0.013
UCCUCCUACAGCUUGCUAAGUAUUUACAAA | 0.0519 ± 0.013
UCCUGGAUCAGCUUGCAUAGUAUAAUGAAA | 0.0691 ± 0.022
UCCUGGAACAGGUUGCAUAGUAUUUAGUUA | 0.308 ± 0.018
UCCUGGAUGUCCUUGCAUAGUAUAUACUUA | 0.00862 ± 0.0049
UCCUGGAUGAGCUUGCAUAGUUAUUAGUAA | 0.00294 ± 0.0051
UCCUGGAUGUGCUUGCAUUGUAUUUAGAAA | 0.0114 ± 0.0047
UCCUCCUACAGCUUGCAUUCAAUUUAGUUA | 0.00444 ± 0.0046
UCCUCCUACAGGAAGCAUAGUAUUUAGUUA | 0.292 ± 0.011
UCCUGGAACACGUUGCAUAGUAUUUUCAAA | 0.0973 ± 0.026
UCCUGGAUGUCGAAGCAUUGUAUUUAGUUA | 0.0024 ± 0.0036
UCCUGGAUGAGGUUGCAUAGUAUUUACUUA | 0.000756 ± 0.011
UCCUGGAUGAGCUUGCAAUCUAUUUAGUUA | 0.00333 ± 0.0036
UCCUCCUACACCUUGCUUAGUAUUUAGUUA | 0.193 ± 0.022

Same assay, conditions: guide: L1MC piRNA 5'p-UAACUAAAUACUAUGCAAGCUGUAGG; auxiliary factor: none (no GTSF1)

Sequence | pre-steady-state target cleavage rate
UCCUGCUACAGCUUGCAUAGUCUUUAGUUA | 0.00239 ± 0.003
UCCUGGAUCAGCUUGGUUAGUAUUUUCAAA | 0.000983 ± 0.0073
UCCUGGAUGUCCUUGCAUAGAUAUUUAGUUA | 0.00426 ± 0.0023
UCCUCCUACAGCUUCCAUUGUAUUUAGUUA | 0.00238 ± 0.003
UCCUGGAUCAGCUUGCAUAGUAUUUUGUAA | 0.00207 ± 0.0032
UCCUGGAACAGCUUCCAUAGAAUUUAGUUA | 0.000497 ± 0.011
UCCUGGAUGUCGAACGUAUGUGUUUAGUUA | < 0.0001
UCCUGGAUGUCGAUGCAUAGUAGUUAGUUA | 0.00415 ± 0.0021
UCCUCCUAGAGCUUGGAUAGUAUUUAGUUA | 0.00594 ± 0.0019
UCCUCCUACAGCUUGCUAAGUAUUUACAAA | 0.00113 ± 0.0049
UCCUGGAUCAGCUUGCAUAGUAUAAUGAAA | 0.00132 ± 0.0059
UCCUGGAUGUCCUUGCAUAGUAUAUACUUA | 0.000586 ± 0.011
UCCUGGAUGAGCUUGCAUAGUUAUUAGUAA | 0.001 ± 0.0074
UCCUGGAUGUGCUUGCAUUGUAUUUAGAAA | 0.000851 ± 0.0069
UCCUGGUACAGCUUGCAUAGAUAAAUCAAA [g11:g24:cont:t1A] | 0.00056 ± 0.013
UCCUCCUACAGCUUGCAUUCAAUUUAGUUA | 0.00184 ± 0.0036
UCCUCCUACAGGAAGCAUAGUAUUUAGUUA | 0.00603 ± 0.0024
UCCUGGAACAGCUUGCAUAGUUAUUUCAAA | 0.000561 ± 0.01
UCCUGGAACACGUUGCAUAGUAUUUUCAAA | 0.00188 ± 0.0033
UCCUGGAUGUCGAAGCAUUGUAUUUAGUUA | 0.000714 ± 0.0057
UCCUGCUACAGCUUGCUUAGUAUUAAGUUA | 0.00265 ± 0.0028
UCCUGGAUGAGGUUGCAUAGUAUUUACUUA | 0.000712 ± 0.0098
UCCUGGAUGAGCUUGCAAUCUAUUUAGUUA | 0.00124 ± 0.0034
UCCUCCUACACCUUGCUUAGUAUUUAGUUA | 0.00665 ± 0.0019
